Drawing on article PMC7819943, “Rice protein-binding microarrays: a tool to detect cis-acting elements near promoter regions in rice”, this text covers binding signal for 42 sequences.

Protein sequences, listed by entry. Tags and fused reporters are not part of them.
UniProt Q0JBA9, entry or part of it: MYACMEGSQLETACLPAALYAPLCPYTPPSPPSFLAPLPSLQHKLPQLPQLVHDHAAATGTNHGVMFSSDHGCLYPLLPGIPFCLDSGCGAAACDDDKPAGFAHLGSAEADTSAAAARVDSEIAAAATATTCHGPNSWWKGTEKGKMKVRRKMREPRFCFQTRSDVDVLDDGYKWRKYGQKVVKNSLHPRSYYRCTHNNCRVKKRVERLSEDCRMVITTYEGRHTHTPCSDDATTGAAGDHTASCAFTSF

This is one part of the list.

This assay concerns the target OsWRKY34 (Oryza sativa, UniProt Q0JBA9 1-250). As to the kind of experiment: protein-binding microarray (RPBM); PBS, 2% BSA, 51.3 ng/ul salmon testes DNA, 50 uM zinc acetate, 200 nM TF, 25 C, 1 h; high values mean tight binding. As to conditions: protein: recombinant; tags: N-terminal polyhistidine and DsRed monomer fusion (pET32a); label: CyDye5-dUTP incorporated in the synthesized complementary strand; 3' TTTTT single-stranded linker to array surface; dsDNA, one strand shown. Summed up: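 Polyhistidine-tagged DsRed fusions of transcription factors, joined at the N-terminus, were expressed in E. coli BL21-CodonPlus and isolated on Ni–NTA. They were incubated at 200 nM for 1 h at 25 °C on a custom Agilent array, double-stranded and BSA-blocked, in PBS with 2% BSA, salmon testes DNA and 50 µM zinc acetate. The binding signal is per-feature fluorescence intensity (arbitrary units) read on an Axon 4000B scanner after washing.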
For the sequence “TGTTTATCTATTTTGTGTTGGTATTATTATTTCTTGTATACGGAGTCACCTAGTGCAG”, the binding signal is 8850 fluorescence intensity (a.u.). Next, “TATCAGTTCATACTCTGCTCCGCCATAAACATTGCCGATTCGGAGTCACCTAGTGCAG”: 9790 fluorescence intensity (a.u.); “TTTCTGATTTTGTTTTGCTATTGTTTTGTTTGTCTTGTTTCGGAGTCACCTAGTGCAG”: 12600 fluorescence intensity (a.u.); “CACTCTTTTTTTTTCAGCCGTTCGATCGAATCCTCATCAGCGGAGTCACCTAGTGCAG”: 8510 fluorescence intensity (a.u.). Next, “CCCCGTGGCCCGTGCGGCCGTGCCCCGCTCGCGCGCGTCTCGGAGTCACCTAGTGCAG”: 8950 fluorescence intensity (a.u.); “TTGTGCCGCACTAGTGGATATGTTTTCGGTAGGAATTTTACGGAGTCACCTAGTGCAG”: 8960 fluorescence intensity (a.u.). Regarding “AGACGAATGGTCAAACACGTATTAAAAAGTCAACGGTGTCCGGAGTCACCTAGTGCAG”, the binding signal is 19700 fluorescence intensity (a.u.). In the case of “GTGGGAGTAGTTGAGGTCAGGAATAAAGCCCTGTTCCGGCCGGAGTCACCTAGTGCAG”, the binding signal was 8890 fluorescence intensity (a.u.). For “TTGTGTGAAGTGTATTGGTTATTTTAGCTTCATAGCTTGTCGGAGTCACCTAGTGCAG” the value was 9050 fluorescence intensity (a.u.); for “CTTTCACCCTAAGATCTTTCTGCCTGTCCATGTCCAACCACGGAGTCACCTAGTGCAG”, 10800 fluorescence intensity (a.u.). Turning to “TCCGTCTGTCTATAGCTACTATTAAAGGAGGGGAGGCTCTCGGAGTCACCTAGTGCAG”, the binding signal is 8130 fluorescence intensity (a.u.). As to “GCCACCATAGCCGTCGCCGTCTCGTACGCCCATCCCACCCCGGAGTCACCTAGTGCAG”, the binding signal is 10200 fluorescence intensity (a.u.). In the case of “GATTTAGTTTTAGTTTTTGTTTTTTTCCCACTTGGTTCTTCGGAGTCACCTAGTGCAG”, the binding signal is 9450 fluorescence intensity (a.u.).

As for “AAATCTATATTATCGTCTGTACTTACTGTAATTTAAGCCACGGAGTCACCTAGTGCAG”, the binding signal is 9980 fluorescence intensity (a.u.). For “TCTCCTATAAAAGGCACTCCATCAATTGATCCTTGACATACGGAGTCACCTAGTGCAG”, the binding signal was 8410 fluorescence intensity (a.u.). In the case of “TTCACCGCTGCCACCACACCTCTCCTCTCCTCTCCTCTCCCGGAGTCACCTAGTGCAG”, the binding signal is 8380 fluorescence intensity (a.u.). For “CAACATAATAGGCCTCTGACTCCCTGACTCCTTTGGTCGGCGGAGTCACCTAGTGCAG” the value was 8060 fluorescence intensity (a.u.); for “AGATATTTTTTTTGACAAAATTCAAACTCTAGCTGTGTTTCGGAGTCACCTAGTGCAG”, 8320 fluorescence intensity (a.u.); for “ACAGCGCCGCCGCAATTCGCTCGCCGCCGCCGCCGCCGCCCGGAGTCACCTAGTGCAG”, 9220 fluorescence intensity (a.u.). In the case of “ACTTTACTCTAGTTATTTTTTTTAGCCTATATTTAATACTCGGAGTCACCTAGTGCAG”, the binding signal is 8470 fluorescence intensity (a.u.). For “GCTAGCATCGAGCGTTCTTTCTCTCCTCGGGCTCTCGTTGCGGAGTCACCTAGTGCAG” the value was 9210 fluorescence intensity (a.u.).

With “ACGATGTGTCCTTCTATTTTATTCTGCATTTGGAATTCTACGGAGTCACCTAGTGCAG”, the binding signal is 9840 fluorescence intensity (a.u.).

On to “ACTTTGCTGCCTATTGTAGATTTGTTATAACGTAGTTACTCGGAGTCACCTAGTGCAG”, for which the binding signal is 10400 fluorescence intensity (a.u.). Take “GTGGTTGCGGCAGGCTTCGTTTTCAACAGCATTTCATTCCCGGAGTCACCTAGTGCAG”: the binding signal is 8290 fluorescence intensity (a.u.).

As to “TTATAGAATATTTAACTCTTTGTCTTATTTAATAATTTTCCGGAGTCACCTAGTGCAG”, the binding signal is 8530 fluorescence intensity (a.u.).

For “GAGTGACATTTGGGGTGGTTTTTGCAATTTTCTCTAAATTCGGAGTCACCTAGTGCAG”, the binding signal is 13000 fluorescence intensity (a.u.). For “GGCCGATGATCACAACTCTCCGGGGCCGATTGGGGTTTATCGGAGTCACCTAGTGCAG”, the binding signal was 9230 fluorescence intensity (a.u.). Next, “AGCTCCAAATGATTTTTTCTCCTAAACCGTTTATCTAATTCGGAGTCACCTAGTGCAG”: 9020 fluorescence intensity (a.u.); “TGTCTTGGTTTTCGTTCGCATGTTTTTCAAACTTACACACCGGAGTCACCTAGTGCAG”: 8970 fluorescence intensity (a.u.); “TCTATCCGAACACATGTTTATATATCATTCCTGGGTTTTTCGGAGTCACCTAGTGCAG”: 11700 fluorescence intensity (a.u.). Regarding “TCGTGTCCTTCTGCCGCTAAAAGCCCATCTTTTTCTCCTTCGGAGTCACCTAGTGCAG”, the binding signal is 11500 fluorescence intensity (a.u.). As for “TTCTTCTTCTGCCATTCCATCCATCCACCGCCGCCTCCGCCGGAGTCACCTAGTGCAG”, the binding signal is 8380 fluorescence intensity (a.u.). As for “ACCTGTGAATGTCTCTAGTGTGACGACTCTACTTCAGTTTCGGAGTCACCTAGTGCAG”, the binding signal was 8300 fluorescence intensity (a.u.). Turning to “CGTCCCACCCCGACCGCCATCCATCCATCGGTGGATATAACGGAGTCACCTAGTGCAG”, the binding signal was 8870 fluorescence intensity (a.u.).

As for “CCCATCCCATCGCGTCTCCTCCGCTTAAATCCCCGCGGCTCGGAGTCACCTAGTGCAG”, the binding signal was 9380 fluorescence intensity (a.u.). Regarding “GGGTGGGTTGATTTGATAGACTTCTTTTGCTTTTGATAAACGGAGTCACCTAGTGCAG”, the binding signal was 29100 fluorescence intensity (a.u.).

As to “CCCTCTCGGCTCTCGCTGGTTACCCCTTTCGACCGCCACCCGGAGTCACCTAGTGCAG”, the binding signal is 10800 fluorescence intensity (a.u.). For “CAATTTTTTTTCGTACAATTGCCGCTCTCATTCATAACCACGGAGTCACCTAGTGCAG” the value was 9900 fluorescence intensity (a.u.). For “TAACACTCAACTAATCATACGGTGATGACTCACCTTTTTTCGGAGTCACCTAGTGCAG”, the binding signal is 9380 fluorescence intensity (a.u.).

“GTCAATTCTTCTGCTAGCTGTGTAACAATATTCATCTGTACGGAGTCACCTAGTGCAG”: the binding signal is 10100 fluorescence intensity (a.u.). Regarding “ACACATTCAAACTTCTTGACGTCTGACCCTCGACATCTACCGGAGTCACCTAGTGCAG”, the binding signal is 9480 fluorescence intensity (a.u.). With “GTGGCGGCGGGTGGGGCCCATCTCATGGCTGCTGCCTCTGCGGAGTCACCTAGTGCAG”, the binding signal was 10800 fluorescence intensity (a.u.).
